Data as given in PubChem BioAssay AID602196 (INSERM, 2012)
The whole screen tested about 23,000 reagents; shown is a random part of them. Of all reagents, 455 (2%) were called active. 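Active includes both protection and sensitisation; some change values fall well beyond the stated -50 to +50 range.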 Unmarked entries are inactive. Further read-outs or replicates are left out here. Not stated in the record: the amount of reagent.

Screen: 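Knock-downs that protect lung cancer cells from cisplatin or sensitise them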
Cell system: human A549 lung cancer cells
Reagents: siRNA pair against human genes
Time to read-out: 48 h transfection before cisplatin; time from cisplatin to read-out not stated
Treatment: cisplatin at a dose killing half of control-siRNA cells; exact dose and duration not given
Measured: 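Shift in cisplatin death relative to control siRNA, from -50 (all cells die) to +50 (no cells die); siRNAs harmful on their own scored 0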
Direction: two-siRNA summed score (-2 to +2): higher = both siRNAs protect from cisplatin killing; -2 means both sensitise; mean protection from cisplatin (shift in death): higher = protection from cisplatin killing
Hit rule: 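Each siRNA scores 0 if harmful alone by LDH or WST-1, otherwise +1 if it reduces and -1 if it increases cisplatin killing; a gene is active when both siRNAs agree (sum +2 or -2)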
Meaning of the calls: active = both siRNAs shift cisplatin killing the same way; inactive = no consistent shift, or siRNA harmful alone

P2RX7 (purinergic receptor P2X 7) — two-siRNA summed score (-2 to +2): 0; mean protection from cisplatin (shift in death) (%): 13.5
CST1 (cystatin SN) — two-siRNA summed score (-2 to +2): -1; mean protection from cisplatin (shift in death) (%): -7.2
ROBO4 (roundabout guidance receptor 4) — two-siRNA summed score (-2 to +2): 0; mean protection from cisplatin (shift in death) (%): -6.5
GPRC5A (G protein-coupled receptor class C group 5 member A) — two-siRNA summed score (-2 to +2): 0; mean protection from cisplatin (shift in death) (%): 8.5
LOC145845 — two-siRNA summed score (-2 to +2): 0; mean protection from cisplatin (shift in death) (%): -0.7
LOC158812 — two-siRNA summed score (-2 to +2): 0; mean protection from cisplatin (shift in death) (%): 11.5
IGFBP7 (insulin like growth factor binding protein 7) — two-siRNA summed score (-2 to +2): 0; mean protection from cisplatin (shift in death) (%): -1.9
MED8 (mediator complex subunit 8) — two-siRNA summed score (-2 to +2): 0; mean protection from cisplatin (shift in death) (%): -10.1
B3GAT1 (beta-1,3-glucuronyltransferase 1) — two-siRNA summed score (-2 to +2): 0; mean protection from cisplatin (shift in death) (%): 4.8
KCNC2 (potassium voltage-gated channel subfamily C member 2) — two-siRNA summed score (-2 to +2): 0; mean protection from cisplatin (shift in death) (%): -4.3
ALKAL2 (ALK and LTK ligand 2) — two-siRNA summed score (-2 to +2): 0; mean protection from cisplatin (shift in death) (%): 10.6
LOC401570 — two-siRNA summed score (-2 to +2): 1; mean protection from cisplatin (shift in death) (%): 13.9
FANCM (FA complementation group M) — two-siRNA summed score (-2 to +2): 0; mean protection from cisplatin (shift in death) (%): 2.1
ATCAY (ATCAY kinesin light chain interacting caytaxin) — two-siRNA summed score (-2 to +2): 0; mean protection from cisplatin (shift in death) (%): 7.2
PABIR3 (PABIR family member 3) — two-siRNA summed score (-2 to +2): 0; mean protection from cisplatin (shift in death) (%): 1.3
EMP3 (epithelial membrane protein 3 (MAM blood group)) — two-siRNA summed score (-2 to +2): 2 (active); mean protection from cisplatin (shift in death) (%): 19.3

Laid out differently: 3 of the entries above
{"gene": "ATCAY (ATCAY kinesin light chain interacting caytaxin)", "two-siRNA summed score (-2 to +2)": 0, "mean protection from cisplatin (shift in death) (%)": 7.2}
{"gene": "PABIR3 (PABIR family member 3)", "two-siRNA summed score (-2 to +2)": 0, "mean protection from cisplatin (shift in death) (%)": 1.3}
{"gene": "EMP3 (epithelial membrane protein 3 (MAM blood group))", "two-siRNA summed score (-2 to +2)": "2 (active)", "mean protection from cisplatin (shift in death) (%)": 19.3}

The listing continues:
GPRASP3 — two-siRNA summed score (-2 to +2): 0; mean protection from cisplatin (shift in death) (%): -4.2
LCE2A (late cornified envelope 2A) — two-siRNA summed score (-2 to +2): 1; mean protection from cisplatin (shift in death) (%): 7.2
PDZD11 (PDZ domain containing 11) — two-siRNA summed score (-2 to +2): 0; mean protection from cisplatin (shift in death) (%): 13.2
LOC387841 — two-siRNA summed score (-2 to +2): 0; mean protection from cisplatin (shift in death) (%): 30.5
LOC400541 — two-siRNA summed score (-2 to +2): 0; mean protection from cisplatin (shift in death) (%): -5.8
FARSB (phenylalanyl-tRNA synthetase subunit beta) — two-siRNA summed score (-2 to +2): 1; mean protection from cisplatin (shift in death) (%): 10.2
CEACAM7 (CEA cell adhesion molecule 7) — two-siRNA summed score (-2 to +2): 1; mean protection from cisplatin (shift in death) (%): 13.5
LOC442402 — two-siRNA summed score (-2 to +2): 1; mean protection from cisplatin (shift in death) (%): 13.5
SLC66A2 — two-siRNA summed score (-2 to +2): 0; mean protection from cisplatin (shift in death) (%): 2.3
CYSLTR1 (cysteinyl leukotriene receptor 1) — two-siRNA summed score (-2 to +2): 0; mean protection from cisplatin (shift in death) (%): 3.7
NPPC (natriuretic peptide C) — two-siRNA summed score (-2 to +2): 0; mean protection from cisplatin (shift in death) (%): 11.7
EML3 (EMAP like 3) — two-siRNA summed score (-2 to +2): 1; mean protection from cisplatin (shift in death) (%): 3
CSE1L (chromosome segregation 1 like) — two-siRNA summed score (-2 to +2): 0; mean protection from cisplatin (shift in death) (%): -1.4
ARL5C (ARF like GTPase 5C) — two-siRNA summed score (-2 to +2): 1; mean protection from cisplatin (shift in death) (%): 12.9
PRSS23 (serine protease 23) — two-siRNA summed score (-2 to +2): 0; mean protection from cisplatin (shift in death) (%): -0.8
